Data taken from PubChem BioAssay AID1347426 (Functional Genomics Laboratory (NCATS/FGL), 2020).
The whole screen tested about 31,000 sequences, of which about 1,400 (4.5%) were called active.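 The calls were made as follows: active = median seed-adjusted z-score above 1 or below -1; inactive = the rest.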 This is one part of the list.

Experiment: Novel Modifiers of Survival Motor Neuron (SMN) Protein: Gene Identification via Genome-wide siRNA Screen;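 also: luminescence tracks full-length SMN protein made from the SMN2 reporter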
Conditions: HEK293T SMN2-luciferase reporter, siRNA knockdown, 72 h; actives lie on both sides
Method in brief: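 Each of three siRNAs per gene is reverse-transfected (1 pmol) into reporter HEK293T cells whose luciferase output tracks SMN protein level. After 72 h culture, ONE-Glo luminescence is control-normalized, log10-transformed and MAD-standardized; Common Seed Analysis deprioritizes seed-driven hits.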

| Sequence | median seed-adjusted z-score |
| --- | --- |
| GGAUGUGGUUGAGUACCUATT against ZFYVE26 | inactive: 0.0495 |
| GGAAGACGAUCUGAACCGATT against EPS15L1 | inactive: -0.0511 |
| GGUCUAAGGAUAUAGGAUATT against CRP | inactive: -0.212 |
| AGGACGAGCUGGAUACGGATT against NXNL1 | inactive: 0.334 |
| GGAGAAUACCUAUCGUGAUTT against PTPN9 | inactive: 0.148 |
| CCAUAAGGUGUAUACGACATT against GGCX | inactive: -0.362 |
| GGCAGGCUCUGAACUAUGATT against APCS | inactive: 0.0494 |
| GCAAGUCCACGUUCCUCAATT against GNA12 | inactive: 0.598 |
| CAAGUAUAUUGAACGAGGATT against SLITRK4 | inactive: -0.015 |
| CUAUAACAUUGGGAAUUAUTT against LEPRE1 | inactive: 0.121 |
| GGAAGUGAAUUAUCACGUUTT against ALPK1 | inactive: -0.0149 |
| CCAUGAACAUUGUGAGCAATT against GAPDHS | inactive: -0.674 |
| CAAAUGGGCUUGAUAAGAUTT against CCT5 | inactive: 0 |
| GCCUCAGGGAUAAUCCACATT against AGBL5 | inactive: 0.0343 |
| GGAAUGGUGUUGAUACAAATT against RPS6KC1 | inactive: 0.344 |
| GAGAAGAACUCGUACCUCUTT against ZNF783 | inactive: 0.284 |
| GAUGGGCACUGUGACCGAATT against PAX7 | inactive: -0.803 |
| GUGAAGACCUGGUAUCAGATT against BARX2 | inactive: -0.206 |
| GGGAUCCAGUGUCACGUUATT against HS6ST3 | inactive: -0.405 |
| GGCGAUCACGAGAACAAUATT against ADAM17 | inactive: 0 |
| CAACCUAUCCGGUUUGUGATT against RAB3IP | inactive: -0.191 |
| CCAAAAGACUUUCAUCGUATT against SCN5A | inactive: -0.167 |

| Sequence | median seed-adjusted z-score |
| --- | --- |
| GCAGAAUAACCUCCAGUAUTT against SLC35A2 | active: 1.06 |
| AGUCAGAGUUGAACAGGUATT against AREG | inactive: 0.104 |
| GCUGUUGUCUGAUAUAAGUTT against ATG4A | inactive: -0.288 |
| GCAGCUGAGUUCUACAAGATT against RAG1 | active: -1.35 |
| CGACCUCUGUUCGAGAAGATT against F2 | inactive: 0.286 |
| GUCGUGAACUGGACAAUAATT against RASGRF1 | inactive: 0 |
| CCAAAGCUCUAACCAUGGATT against CLEC4F | inactive: 0.347 |
| AGUUUGCGAUCGUGCGGAATT against DAPK3 | inactive: -0.105 |
| GUGUAUCUUUGAUCGGGAATT against LAMC2 | inactive: -0.186 |
| CAACGUGCCUUAUUCCAUATT against HHIP | inactive: 0 |
| CGACGGUGGAAGACACCUATT against DIRAS2 | active: -1.25 |
| CGACCCAGACAAUAGACUATT against CCNT1 | inactive: -0.72 |
| CCUACUUCGGAGUCUAUGATT against SLC25A4 | inactive: -0.379 |
| CGAUGACCUUACUAGCUCATT against PPP2R5A | inactive: 0.37 |
| CUAUCAGGAUGUAGACAAATT against SLC27A6 | inactive: -0.172 |
| CUUCCACCCGAGUACCUUUTT against HDAC10 | inactive: -0.165 |
| CUACGAAACCUGAAAUUCATT against SFRS14 | inactive: -0.312 |
| GGGUGUAUGAUGACCUCAATT against RENBP | inactive: 0.587 |
| GGAAGAAGAUCCUAUUUUATT against ALG2 | inactive: 0.631 |
| GCAGUUGACAGGACAUUCATT against TLN1 | inactive: -0.0619 |
| GGAACGCACUAAACCCUCATT against FXR2 | inactive: -0.133 |
| GCAGUAAUGUUGAUAUAGATT against VDAC3 | inactive: 0.646 |

| Sequence | median seed-adjusted z-score |
| --- | --- |
| GACCACAACCUCUUCAGUATT against DHFR | inactive: -0.952 |
| GGAUCAAGAAUGUUGAGGATT against THBS3 | inactive: 0.429 |
| GCAAGGUCAUCGGAGACAATT against PDE2A | inactive: -0.2 |
| GAUUCUGUGAGAUAGAUCATT against CRB1 | inactive: 0 |
| UGAAGAUUAUGGAGUAUUATT against ATP6V1E2 | inactive: -0.162 |
| CACCAUGGGUGGAGACUUUTT against KIF2B | inactive: 0.226 |
| CGAACUUCCUCAUCGGCAATT against PRLHR | inactive: 0 |
| CAGUUGAUCAUAUUCAGAATT against ZNF645 | inactive: 0.079 |
| AGAGGAUCAAGGUUUUAAATT against APBA2 | active: 1.66 |
| GACAAUACCUGCAAGCUGATT against CXCR5 | inactive: 0.0406 |
| CCAGUAUCCUGAAGGCAGATT against SLC25A11 | inactive: -0.731 |
| GCCGCCAAGUAAAGCCUUATT against HSPB1 | inactive: 0.693 |
| GCAUACCAGUGUUAGCAAATT against UBE2V2 | inactive: 0.556 |
| GGAUAUGAAUUGUCUCCCATT against PSMB2 | inactive: 0 |
| AUCAUGUUAUUGCAGCUGATT against CTSG | inactive: -0.47 |
| GGUACUUGCUAUAAUGGAATT against TRAF5 | inactive: 0.598 |
| CAGCAUACAUGUUUAGUGATT against TRPC6 | inactive: -0.527 |
| GCUCCAUCAGGAUUCUCAATT against KCNQ4 | inactive: 0.583 |
| CUGCGACCAUGGUAUAGUATT against DKC1 | inactive: -0.203 |
| CACGUGAUCUCAUACAGGATT against ZNF613 | inactive: -0.189 |
| GGCUAGAUUUUUAUAAGCATT against ZNF155 | inactive: 0.698 |
| CCAAUCACGUGGAAGUUAATT against APOBEC1 | inactive: -0.323 |

| Sequence | median seed-adjusted z-score |
| --- | --- |
| GGAUCAAGCAUGAAUUGCATT against CFL1 | inactive: 0.685 |
| CUAGAUCCUUCAAAUCUGATT against HCCS | inactive: 0.00254 |
| GGAAGAGGCUGAAAAGUUUTT against TTC7B | inactive: 0.0338 |
| GUGCAUUGCCUGAAACUCATT against NXF5 | inactive: -0.396 |
| CGAACGAUCUGAGGAUCAATT against TXNDC3 | inactive: -0.649 |
| GGAUCAGCUGGAGAGCUUATT against AURKA | inactive: -0.108 |
| AGUUCCCUUUGUAACCAUATT against ZNF669 | inactive: 0.175 |
| CCAUGUAUGUGCUUCCAUUTT against PCK2 | inactive: 0.318 |
| CCAGCAAUAUCAACGACGATT against ZNF385D | inactive: -0.338 |
| GGGUGUAACAUGUGCGGAATT against ZNF217 | inactive: -0.872 |
| GUACGGGAAUAUAUGCUUATT against CDC7 | inactive: -0.236 |
| GGAUGAGGAGUGGUCAGAUTT against PACSIN3 | inactive: -0.0145 |
| GGUGCAGUUUCGUUGUGAATT against KISS1R | inactive: -0.299 |
| GGGUUACAGCUAAAAUUGUTT against OC90 | inactive: 0.216 |
| ACUUCAAGAUCGUCACGGATT against FABP6 | inactive: 0.122 |
| GCAUAUGAAGUUACUAGCATT against MMP3 | inactive: 0.0592 |
| GUCCAAGAUUUAACAGUGATT against GRPEL2 | inactive: 0.0821 |
| CAUCUGAAGUUGCAGUCUUTT against S1PR4 | inactive: 0.0951 |
| GCACAGAGCUGUCCAAAGATT against ATP6V0D1 | inactive: -0.242 |
| GAGCAUGAGUGGACCAACATT against DAB2IP | inactive: 0.505 |
| GCAGCUAAGUACCUUGUUUTT against MSR1 | inactive: 0.0743 |
| GGUUCUCAUUCAAGGAUCATT against SLC5A12 | inactive: 0.279 |

| Sequence | median seed-adjusted z-score |
| --- | --- |
| GGAGCUCUUUGAUCACAUUTT against HKDC1 | inactive: -0.119 |
| GAAACACCAGUAUCCAGAUTT against ENOSF1 | inactive: 0.496 |
| GAAGAACUUUAUAAGGUGATT against SARS | inactive: 0.377 |
| GUGAGAAGUUGGAUGUUUATT against TRIM43 | inactive: -0.4 |
| AGUUCCGGGUGGUCAAGGATT against SYP | inactive: -0.0289 |
| GAACGAGAAGUUUAACUAUTT against TTBK1 | inactive: 0.00054 |
| CGAGGAUUGUAGAAAUCUATT against GCH1 | inactive: 0.569 |
| GUUCCGUACAGAUAAAGGATT against SAE1 | inactive: 0.831 |
| GCACUGUGCAGGUUGAAAATT against 6-Sep | inactive: -0.732 |
| CGUGGAAAUUUUGACUGGATT against GALNT3 | inactive: -0.0426 |
| CGACAUCAAAACACGAAAATT against RNASEL | inactive: 0 |
| GGCUUAACUUUAGUGUUGATT against PRDM2 | active: 1.12 |
| GGACAAGAUUGGUGGGUUATT against PEX1 | inactive: 0.227 |
| GAAUAUUGGUUCUUCGUAATT against LRGUK | inactive: 0.166 |
| CCAGUGCAAUCAGCAGAGATT against ATP5G3 | inactive: 0 |
| CAAUCCCUCAAGAUUUUAATT against PSMA7 | inactive: 0.0726 |
| CCAAGUCCUUGGUAAUCUUTT against MCCC1 | inactive: 0.298 |
| GGACGGUACUACAGUGUAATT against HDAC8 | inactive: 0.835 |
| CCACCUCUACCAAACAUUUTT against IL2RG | inactive: -0.155 |
| GAACUAUGAUAUCCAGUAUTT against ARG2 | inactive: -0.796 |
